The assay has as its system primary human hepatic stellate cells (donor 1). Description: percent Bodipy-positive cells; higher = more lipid droplet accumulation. The following applies: 48 h.
Setting [1] is: library stock concentration: 2 mM.
Where [2] appears, read: library stock concentration: 10 mM.
The mark [3] stands for this setting: library stock concentration: 3.33 mM.
The mark [4] stands for this setting: library stock concentration: 400 uM.
[5] abbreviates: library stock concentration: 1 mM.
Where [6] appears, read: library stock concentration: 6.4 mM.

Where “and” joins values, the source holds several entries; their conditions need not be identical. Equal entries are not always repeated. Structures can show the parent of a compound that is named as a salt. ± gives the standard deviation of the averaged measurements. The list shows a part of the results. Baselines shift from plate to plate; read single values as rough.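 Primary human stellate myofibroblasts activated in culture; inactivation shown by regained lipid droplets. Readout: fraction of Hoechst-counted cells exceeding a per-plate Bodipy threshold, duplicate wells, each plate with DMSO negative and nortriptyline positive controls. Hits: control-normalized score beyond the plate's top-tenth-percentile nortriptyline wells, or among its three best wells. Final well concentrations unstated.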

In the case of `COc1cc2ncnc(Nc3ccc(F)c(Cl)c3)c2cc1OCCCN1CCOCC1` [Gefitinib (ZD1839, Iressa) (2 mM)], the “percent Bodipy-positive cells” value under setting [1] stood at 69.4 ± 9.7%. Turning to `COc1cc2ncnc(Nc3ccc(F)c(Cl)c3)c2cc1OCCCN1CCOCC1` [Gefitinib (ZD1839, Iressa) (10 mM)], the “percent Bodipy-positive cells” value under setting [2] worked out at 85.2 ± 12%. With `CC(C)NCC(O)c1ccc(O)c(O)c1` (centres undefined) [Isoproterenol hydrochloride], the “percent Bodipy-positive cells” value is, setting by setting: (library stock concentration: 8.1 mM) 8.17 ± 3.6%; under setting [2], 13.1% and 7.95%. Consider `CC(C)NCC(O)c1ccc(O)c(O)c1` (centres undefined) [(?)-Isoproterenol hydrochloride], for which, under setting [2], the “percent Bodipy-positive cells” value stood at 44.1 ± 5.3%.

Consider `CC(C)NCC(O)c1ccc(O)c(O)c1` (stereo not drawn) [R(-)-Isoproterenol (+)-bitartrate], for which the “percent Bodipy-positive cells” value under setting [2] was 30.4 ± 4.7%.

`CC(C)NCC(O)c1ccc(O)c(O)c1` (stereo not drawn) [S(+)-Isoproterenol (+)-bitartrate]: the “percent Bodipy-positive cells” value under setting [2] turned out to be 47.3 ± 13%. Still for that read-out and setting: as for `CC(C)NCC(O)c1ccc(O)c(O)c1` (centres undefined), the figure is 26 ± 1.4%. In the case of `CC(C)NCC(O)c1ccc(O)c(O)c1` (centres undefined) [Isoprenaline HCl], the “percent Bodipy-positive cells” value turned out to be 4.45 ± 1.2% under setting [3] and 7.68 ± 1.5% under setting [2]. Regarding `CS(=O)(=O)N1CCN(Cc2cc3nc(-c4cccc5[nH]ncc45)nc(N4CCOCC4)c3s2)CC1`, the “percent Bodipy-positive cells” value by setting is: (library stock concentration: 80 uM) 15.9 ± 5.1%; under setting [4], 10.6% and 18.6%; under setting [1], 19.2% and 32.2%; under setting [3], 20.7 ± 0.49%; under setting [2], 58.5% and 50.6%.

Regarding `CC(C)(C)NC(=O)[C@@H]1C[C@@H]2CCCC[C@@H]2CN1C[C@@H](O)[C@H](Cc1ccccc1)NC(=O)[C@H](CC(N)=O)NC(=O)c1ccc2ccccc2n1`, the “percent Bodipy-positive cells” value under setting [2] amounted to 37.1 ± 7.6%. Turning to `CC(C)(C)NC(=O)[C@@H]1C[C@@H]2CCCC[C@@H]2CN1C[C@@H](O)[C@H](Cc1ccccc1)NC(=O)[C@H](CC(N)=O)NC(=O)c1ccc2ccccc2n1` [Saquinavir mesylate], the “percent Bodipy-positive cells” value is 10.5 ± 2.5%. On to `COc1ccc2[nH]c([S@@+]([O-])Cc3ncc(C)c(OC)c3C)nc2c1` [Esomeprazole Sodium], for which the “percent Bodipy-positive cells” value under setting [3] came out at 5.66 ± 0.93% and the “percent Bodipy-positive cells” value under setting [2] came out at 12.8 ± 0.26%. As to `COc1ccc2[nH]c([S@@+]([O-])Cc3ncc(C)c(OC)c3C)nc2c1` [Esomeprazole magnesium dihydrate], the “percent Bodipy-positive cells” value under setting [2] was determined as 40.4 ± 2.2%. `COc1ccc2[nH]c([S@@+]([O-])Cc3ncc(C)c(OC)c3C)nc2c1` [Esomeprazole potassium]: the “percent Bodipy-positive cells” value (library stock concentration: 5.8 mM) is 11.1 ± 0.58%. With `Cc1cc(NC2CCCCC2)nc(-n2nc(C)cc2C)n1`, the “percent Bodipy-positive cells” value under setting [2] was 43.2 ± 6.3%. The same measure, in the same setting: as for `NCCSSCCN` [Cystamine dihydrochloride], the figure is 42.8% and 40.1%. `CCCCC(C)(C)[C@H](O)/C=C/[C@H]1[C@H](O)CC(=O)[C@@H]1CC(=O)CCCCC(=O)O` [16,16-dimethyl-6-keto Prostaglandin E1]: the “percent Bodipy-positive cells” value under setting [5] turned out to be 17.7 ± 1.9%. With `Nc1nc2c(ncn2COCCO)c(=O)[nH]1` [Acyclovir], the “percent Bodipy-positive cells” value came out at 21.1 ± 0.65%. Regarding `Nc1nc2c(ncn2COCCO)c(=O)[nH]1` [Aciclovir], the “percent Bodipy-positive cells” value was 5.405 ± 0.052% under setting [3] and 12.6 ± 2.8% under setting [2]. Turning to `Nc1nc2c(ncn2COCCO)c(=O)[nH]1` [Acycloguanosine], the “percent Bodipy-positive cells” value (library stock concentration: 8.9 mM) is 5.5 ± 0.43%. Consider `Cc1ccccc1C(=O)c1ccc(Nc2ccc(Br)cc2N)cc1Cl`, for which the “percent Bodipy-positive cells” value under setting [2] was 8.54 ± 1.7%.

On to `COc1ccc(C(=O)CC(=O)c2ccc(C(C)(C)C)cc2)cc1` [Avobenzone], for which the “percent Bodipy-positive cells” value under setting [3] was 9.67 ± 3.7%; the “percent Bodipy-positive cells” value under setting [6] came to 10.3 ± 5.8%; the “percent Bodipy-positive cells” value under setting [2] was 16.9% and 40.3%. Turning to `c1ccc(C(O[C@@H]2CCCN(CCc3ccc4c(c3)OCO4)C2)c2ccccc2)cc1` [Zamifenacin fumarate], under setting [2], the “percent Bodipy-positive cells” value came out at 21.4 ± 3.5%. For `CC(=O)OCC(=O)[C@@]1(O)[C@H](C)C[C@H]2[C@@H]3CCC4=CC(=O)C=C[C@]4(C)[C@@]3(F)[C@@H](O)C[C@@]21C` [Dexamethasone acetate], the “percent Bodipy-positive cells” value is 17.7 ± 7.1%. The “percent Bodipy-positive cells” value under setting [2] was 9.22 ± 0.32%.

Take `COc1ncnc(NS(=O)(=O)c2ccc(N)cc2)c1OC` [Sulfadoxine]: the “percent Bodipy-positive cells” value came out at 11.4 ± 0.66%. Besides, the “percent Bodipy-positive cells” value under setting [6] is 7.49% and 1.9%. For the molecule `CCCCCCCC(=O)CC[C@@H]1[C@@H](C/C=C\CCCC(=O)O)[C@@H](O)C[C@H]1O` [Unoprostone], the “percent Bodipy-positive cells” value under setting [5] worked out at 14.5 ± 3.5%. On to `CN1CCN(CC/C=C2\c3ccccc3Sc3ccc(S(=O)(=O)N(C)C)cc32)CC1` [Thiothixene], for which the “percent Bodipy-positive cells” value (library stock concentration: 4.5 mM) stood at 87.8 ± 2.1%. For the molecule `COc1c(N2C[C@@H]3CCCN[C@@H]3C2)c(F)cc2c(=O)c(C(=O)O)cn(C3CC3)c12`, the “percent Bodipy-positive cells” value under setting [2] stood at 9.28 ± 0.52%. As to `COc1c(N2C[C@@H]3CCCN[C@@H]3C2)c(F)cc2c(=O)c(C(=O)O)cn(C3CC3)c12` [Moxifloxacin HCl], the “percent Bodipy-positive cells” value was determined as 12.8 ± 12% under setting [3] and 13.6 ± 3.9% under setting [2]. Regarding `COc1c(N2C[C@@H]3CCCN[C@@H]3C2)c(F)cc2c(=O)c(C(=O)O)cn(C3CC3)c12` [Moxifloxacin hydrochloride], the “percent Bodipy-positive cells” value under setting [2] came to 51.3 ± 13%. With `COc1ccc(C(=O)c2ccccc2)c(O)c1` [Oxybenzone], the “percent Bodipy-positive cells” value stood at 9.79 ± 3%. The “percent Bodipy-positive cells” value (library stock concentration: 8.8 mM) is 4.59 ± 0.7%. Further, the “percent Bodipy-positive cells” value under setting [2] is 16.8 ± 1.2%. As for `CCCCC/C=C\C\C=C/C=C/C=C/[C@@H](SC[C@H](N)C(=O)NCC(=O)O)[C@@H](O)CCCC(=O)O` [Leukotriene D4], under “library stock concentration: 100 uM”, the “percent Bodipy-positive cells” value came out at 6.67 ± 5.3%. Take `Cl.Cl.O=S(=O)(NCCNC/C=C/c1ccc(Br)cc1)c1cccc2cnccc12` [H 89 dihydrochloride]: the “percent Bodipy-positive cells” value under setting [2] came to 77.5 ± 2.8%. `Nc1nonc1C(=Nc1ccc(F)c(Cl)c1)NO`: the “percent Bodipy-positive cells” value came out at 32.88 ± 0.038% under setting [3] and 37 ± 1.2% under setting [2]. As for `CCN(CC)CCOc1ccc2c(c1)C(=O)c1cc(OCCN(CC)CC)ccc1-2` [Tilorone], the “percent Bodipy-positive cells” value (library stock concentration: 4.9 mM) is 2.07 ± 0.58%.

In the case of `Cc1ccccc1-c1cccc(N2CCC(N3CCN(C)C(C)C3)CC2)c1` (centres undefined), the “percent Bodipy-positive cells” value under setting [2] was determined as 96.34 ± 0.3%. On the same count and under the same terms, next, `Oc1ccc(Cn2cc[nH]c2=S)cc1` [1-(4-Hydroxybenzyl)imidazole-2-thiol]: 38.3 ± 2.1%. Turning to `NCCCCCNCC12CC3CC(CC(C3)C1)C2` [IEM 1754 dihydrobroMide], the “percent Bodipy-positive cells” value is, setting by setting: under setting [3], 22.7 ± 0.91%; under setting [2], 63.7 ± 19%. The like results for `O=C1CC(=O)c2c(Cl)c(Cl)c(Cl)c(Cl)c21` were, in that order, 21.76 ± 0.028% and 49.9 ± 11%. Take `COc1ccccc1N1CCN(CCN(C(=O)c2ccc(F)cc2)c2ccccn2)CC1` [p-MPPF dihydrochloride]: under setting [2], the “percent Bodipy-positive cells” value amounted to 41.9 ± 8.5%.

As for `c1ccc(-c2ccccn2)nc1` [2,2'-Bipyridyl], the “percent Bodipy-positive cells” value under setting [2] was 58.9 ± 4%. Turning to `O=C(O)c1ccc2c(c1)nc(Nc1cccc(Cl)c1)c1ccncc12`, the “percent Bodipy-positive cells” value was determined as 15.9 ± 2% under setting [4], 12.8 ± 0.41% under setting [1] and 28.2 ± 2% under setting [2]. Regarding `O=C(O)c1ccc2c(c1)nc(Nc1cccc(Cl)c1)c1ccncc12` [CX-4945 (Silmitasertib)], the “percent Bodipy-positive cells” value under setting [3] came out at 6.05 ± 0.83% and the “percent Bodipy-positive cells” value under setting [2] came to 13.5 ± 3.3%. In the case of `CC1(C)O[C@@H]2C[C@H]3[C@@H]4CCC5=CC(=O)C=C[C@]5(C)[C@H]4[C@@H](O)C[C@]3(C)[C@]2(C(=O)CO)O1`, under setting [2], the “percent Bodipy-positive cells” value was 38.3 ± 5%.

In the case of `CC1(C)O[C@@H]2C[C@H]3[C@@H]4CCC5=CC(=O)C=C[C@]5(C)[C@H]4[C@@H](O)C[C@]3(C)[C@]2(C(=O)CO)O1` [Desonide], the “percent Bodipy-positive cells” value reads like this: under setting [3], 6.29 ± 1.7%; under setting [2], 7.97 ± 0.081%. The like results for `CCNC(=O)CCC/C=C\C[C@@H]1[C@@H](/C=C/[C@@H](O)CCc2ccccc2)[C@H](O)C[C@@H]1O` [Bimatoprost] were, in that order, 18.4 ± 12% and 16 ± 4.4%.

These data come from the supplement of paper PMC9135407.
